No constants are given. Whether binding was seen depends on the method and setting. In cells and extracts the contact can be indirect. A result given as binding can be weak or reduced; the word gives no strength. Sequences can lack the tags named with a protein.
Each substance was assayed against T1, GFP-tagged CLASP2 (UniProt O75122) (assay: co-IP; lysates of HPAEC cotransfected with a GFP-tagged protein and Myc-SOCS3 or its deletion mutants (TBS-NP40); precipitated with GFP antibody, blot for Myc; in Fig. 4F also after HKSA or colchicine).
T1 sequence: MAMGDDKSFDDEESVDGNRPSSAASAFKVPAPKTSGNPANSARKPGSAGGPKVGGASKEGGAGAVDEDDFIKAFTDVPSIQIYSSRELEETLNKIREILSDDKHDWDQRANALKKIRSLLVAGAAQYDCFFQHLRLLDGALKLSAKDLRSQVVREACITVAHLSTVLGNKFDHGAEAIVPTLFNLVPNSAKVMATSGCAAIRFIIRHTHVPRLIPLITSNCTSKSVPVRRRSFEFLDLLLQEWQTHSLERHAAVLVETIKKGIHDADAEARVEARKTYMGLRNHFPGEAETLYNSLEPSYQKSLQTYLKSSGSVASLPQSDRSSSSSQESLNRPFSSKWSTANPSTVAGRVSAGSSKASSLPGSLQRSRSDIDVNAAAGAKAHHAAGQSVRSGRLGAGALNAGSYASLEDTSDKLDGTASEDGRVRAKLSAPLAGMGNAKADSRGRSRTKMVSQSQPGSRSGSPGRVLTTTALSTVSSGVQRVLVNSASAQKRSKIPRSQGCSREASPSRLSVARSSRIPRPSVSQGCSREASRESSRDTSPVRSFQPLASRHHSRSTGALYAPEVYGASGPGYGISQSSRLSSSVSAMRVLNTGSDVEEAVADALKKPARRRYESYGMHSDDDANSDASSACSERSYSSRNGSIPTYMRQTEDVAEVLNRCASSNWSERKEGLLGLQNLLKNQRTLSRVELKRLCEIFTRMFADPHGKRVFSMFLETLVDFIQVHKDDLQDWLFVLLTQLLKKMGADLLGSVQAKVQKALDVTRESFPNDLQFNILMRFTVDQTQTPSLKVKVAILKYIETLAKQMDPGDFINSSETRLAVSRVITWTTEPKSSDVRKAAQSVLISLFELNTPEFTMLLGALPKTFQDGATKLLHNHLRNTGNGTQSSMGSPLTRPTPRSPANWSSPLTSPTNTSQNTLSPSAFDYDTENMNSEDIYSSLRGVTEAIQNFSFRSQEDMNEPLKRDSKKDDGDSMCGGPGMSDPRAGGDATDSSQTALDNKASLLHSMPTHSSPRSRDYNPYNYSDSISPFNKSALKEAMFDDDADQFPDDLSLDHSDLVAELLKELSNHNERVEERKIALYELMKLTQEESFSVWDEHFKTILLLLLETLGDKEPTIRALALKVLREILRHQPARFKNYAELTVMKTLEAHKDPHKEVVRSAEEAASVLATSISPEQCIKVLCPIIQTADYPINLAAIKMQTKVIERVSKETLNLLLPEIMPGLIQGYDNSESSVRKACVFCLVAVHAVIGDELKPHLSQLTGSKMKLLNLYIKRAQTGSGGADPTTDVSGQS
For “Myc-tagged C-terminal SOCS3 deletion mutant (ΔC47) lacking SOCS box (domain or fragment)”, the binding was “binds”. For “Myc-tagged SOCS3 ΔN20 (deletion of the first 20 amino acids) (domain or fragment)”, the binding was “no binding”. With “Myc-tagged SOCS3 ΔN36 (deletion of the first 36 amino acids) (domain or fragment)” the binding was “no binding”.
